# No constants are given. Whether binding was seen depends on the method and setting. Binding seen in cells or lysates may run through a third protein. Some entries that bind do so weakly or less than the wild type. For part of these data: Tags and fused reporters may be left off the sequences shown.
# Sequences of proteins named here, by UniProt entry; tags and fusion partners are left off.
# UniProt P84078: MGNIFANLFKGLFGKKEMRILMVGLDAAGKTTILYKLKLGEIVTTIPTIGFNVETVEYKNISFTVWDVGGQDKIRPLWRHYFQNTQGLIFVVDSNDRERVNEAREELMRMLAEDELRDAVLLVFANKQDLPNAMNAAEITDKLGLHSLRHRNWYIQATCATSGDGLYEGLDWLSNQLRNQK
# UniProt Q61768: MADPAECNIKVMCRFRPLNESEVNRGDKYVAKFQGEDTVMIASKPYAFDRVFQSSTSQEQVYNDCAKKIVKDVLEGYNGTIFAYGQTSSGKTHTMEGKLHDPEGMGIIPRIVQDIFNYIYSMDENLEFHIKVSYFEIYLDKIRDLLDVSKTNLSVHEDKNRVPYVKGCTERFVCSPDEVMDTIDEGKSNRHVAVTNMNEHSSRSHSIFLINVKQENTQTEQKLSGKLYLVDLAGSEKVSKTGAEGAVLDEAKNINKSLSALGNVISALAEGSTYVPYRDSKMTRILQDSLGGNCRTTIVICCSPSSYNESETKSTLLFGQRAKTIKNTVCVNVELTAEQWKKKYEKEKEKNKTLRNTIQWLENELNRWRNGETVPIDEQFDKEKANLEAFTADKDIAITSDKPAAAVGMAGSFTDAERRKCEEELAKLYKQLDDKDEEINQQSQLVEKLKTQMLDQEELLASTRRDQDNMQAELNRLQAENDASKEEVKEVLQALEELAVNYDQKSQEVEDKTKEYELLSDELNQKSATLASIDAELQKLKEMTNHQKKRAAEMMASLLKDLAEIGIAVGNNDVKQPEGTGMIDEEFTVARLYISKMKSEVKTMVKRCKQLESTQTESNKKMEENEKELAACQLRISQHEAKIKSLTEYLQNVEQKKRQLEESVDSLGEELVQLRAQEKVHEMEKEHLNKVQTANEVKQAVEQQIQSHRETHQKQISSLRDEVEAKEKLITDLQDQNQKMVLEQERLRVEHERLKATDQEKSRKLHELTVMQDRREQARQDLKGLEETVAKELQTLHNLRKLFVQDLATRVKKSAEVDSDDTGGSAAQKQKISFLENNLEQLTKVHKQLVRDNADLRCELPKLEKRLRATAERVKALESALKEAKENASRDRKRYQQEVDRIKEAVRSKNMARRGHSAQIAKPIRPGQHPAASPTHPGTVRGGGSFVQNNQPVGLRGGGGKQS
# UniProt P84077: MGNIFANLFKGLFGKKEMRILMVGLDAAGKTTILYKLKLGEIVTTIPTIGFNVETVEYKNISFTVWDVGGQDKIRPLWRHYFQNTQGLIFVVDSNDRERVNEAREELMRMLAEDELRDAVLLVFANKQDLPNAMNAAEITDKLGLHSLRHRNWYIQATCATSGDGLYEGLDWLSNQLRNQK
# Key:
# [1] = target: T1, glutathione S-transferase (GST)-tagged Golgi-localized γ-ear containing Arf-binding protein 3 (GGA3) fusion protein (UniProt Q9NZ52); test: pull-down
# T1 sequence: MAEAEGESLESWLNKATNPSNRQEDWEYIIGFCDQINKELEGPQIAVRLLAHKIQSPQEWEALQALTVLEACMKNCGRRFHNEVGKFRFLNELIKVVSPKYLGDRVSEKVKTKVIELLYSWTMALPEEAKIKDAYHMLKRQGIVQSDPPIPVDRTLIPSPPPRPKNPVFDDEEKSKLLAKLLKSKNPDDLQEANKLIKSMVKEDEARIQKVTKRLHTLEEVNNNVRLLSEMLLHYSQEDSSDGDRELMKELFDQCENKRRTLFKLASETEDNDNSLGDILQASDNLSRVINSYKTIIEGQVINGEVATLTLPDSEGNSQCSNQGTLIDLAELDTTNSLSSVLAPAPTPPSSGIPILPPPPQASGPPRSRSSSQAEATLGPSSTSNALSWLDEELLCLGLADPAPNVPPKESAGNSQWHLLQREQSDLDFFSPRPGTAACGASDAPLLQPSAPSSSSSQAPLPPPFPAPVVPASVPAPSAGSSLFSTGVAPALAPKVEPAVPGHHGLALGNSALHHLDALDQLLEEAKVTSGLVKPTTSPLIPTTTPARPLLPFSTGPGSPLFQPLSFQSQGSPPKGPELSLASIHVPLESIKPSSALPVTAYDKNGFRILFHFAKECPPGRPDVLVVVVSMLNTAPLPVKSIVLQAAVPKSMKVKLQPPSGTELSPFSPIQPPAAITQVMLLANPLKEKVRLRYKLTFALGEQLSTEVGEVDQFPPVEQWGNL
# [2] = target: Arf1 (endogenous, WT-MEFs) (mouse (endogenous in WT-MEFs)) (UniProt P84078); test: pull-down
binding [1],binding [2],Substance
binds,,"Arf1 (endogenous, WT-MEFs) (from UniProt P84078 1-181)"
,binds,"KIF5B (endogenous, WT-MEFs) (from UniProt Q61768 1-963)"
binds,,"Arf1 (endogenous, T24 bladder cancer cells) (from UniProt P84077 1-181)"

# Source: doi:10.1101/2025.05.11.653231
